# Test results: the supplement of paper PMC12823440, “Inhibitors supercharge kinase turnover through native proteolytic circuits” (Nature, 2025)
# Sequences of proteins named here, by UniProt entry; tags and fusion partners are left off. A change or cut given only in a name is not applied to a line headed by its entry.
# UniProt P48729: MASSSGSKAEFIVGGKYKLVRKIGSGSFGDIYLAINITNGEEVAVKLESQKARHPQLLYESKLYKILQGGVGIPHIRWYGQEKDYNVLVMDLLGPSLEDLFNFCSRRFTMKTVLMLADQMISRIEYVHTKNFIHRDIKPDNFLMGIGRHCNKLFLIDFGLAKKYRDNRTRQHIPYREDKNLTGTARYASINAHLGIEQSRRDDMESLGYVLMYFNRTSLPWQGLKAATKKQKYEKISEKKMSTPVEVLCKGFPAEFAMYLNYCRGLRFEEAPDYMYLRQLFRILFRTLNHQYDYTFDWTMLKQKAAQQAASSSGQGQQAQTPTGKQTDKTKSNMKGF
# UniProt P48730: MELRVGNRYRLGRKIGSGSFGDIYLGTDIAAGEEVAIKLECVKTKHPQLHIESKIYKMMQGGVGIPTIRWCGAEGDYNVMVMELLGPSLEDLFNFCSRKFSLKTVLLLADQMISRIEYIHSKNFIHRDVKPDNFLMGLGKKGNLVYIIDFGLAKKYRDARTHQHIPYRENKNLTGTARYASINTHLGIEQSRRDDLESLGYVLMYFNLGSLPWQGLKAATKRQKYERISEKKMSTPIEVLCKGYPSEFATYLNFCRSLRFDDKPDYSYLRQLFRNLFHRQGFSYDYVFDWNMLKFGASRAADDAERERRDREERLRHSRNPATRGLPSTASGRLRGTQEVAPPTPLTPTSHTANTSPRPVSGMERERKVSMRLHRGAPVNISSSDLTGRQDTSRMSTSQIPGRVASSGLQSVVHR
# UniProt Q08345: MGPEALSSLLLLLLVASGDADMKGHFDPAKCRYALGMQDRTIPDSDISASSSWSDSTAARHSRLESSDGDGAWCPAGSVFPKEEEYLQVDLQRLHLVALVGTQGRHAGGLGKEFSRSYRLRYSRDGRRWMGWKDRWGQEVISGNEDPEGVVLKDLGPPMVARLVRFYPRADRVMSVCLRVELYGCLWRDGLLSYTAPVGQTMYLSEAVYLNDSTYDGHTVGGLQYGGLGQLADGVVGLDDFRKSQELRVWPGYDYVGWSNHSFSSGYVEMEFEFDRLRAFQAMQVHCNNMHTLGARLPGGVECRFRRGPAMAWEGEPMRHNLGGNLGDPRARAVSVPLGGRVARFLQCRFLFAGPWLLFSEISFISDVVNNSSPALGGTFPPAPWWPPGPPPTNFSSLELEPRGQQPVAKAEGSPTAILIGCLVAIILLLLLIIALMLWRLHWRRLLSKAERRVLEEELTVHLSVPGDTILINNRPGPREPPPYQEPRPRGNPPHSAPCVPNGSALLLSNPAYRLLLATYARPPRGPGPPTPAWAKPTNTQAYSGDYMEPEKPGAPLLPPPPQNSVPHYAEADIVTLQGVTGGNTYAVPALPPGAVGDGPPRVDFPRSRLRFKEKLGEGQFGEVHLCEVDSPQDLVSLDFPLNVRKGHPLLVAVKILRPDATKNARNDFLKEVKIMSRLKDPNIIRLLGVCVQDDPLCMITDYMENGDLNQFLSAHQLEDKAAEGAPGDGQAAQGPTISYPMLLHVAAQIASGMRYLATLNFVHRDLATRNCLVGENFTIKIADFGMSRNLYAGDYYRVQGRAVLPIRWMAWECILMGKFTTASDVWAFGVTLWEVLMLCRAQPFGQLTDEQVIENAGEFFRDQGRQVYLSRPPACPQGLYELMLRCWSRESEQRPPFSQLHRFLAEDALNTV
# UniProt Q9Y463, whole entry, looked up: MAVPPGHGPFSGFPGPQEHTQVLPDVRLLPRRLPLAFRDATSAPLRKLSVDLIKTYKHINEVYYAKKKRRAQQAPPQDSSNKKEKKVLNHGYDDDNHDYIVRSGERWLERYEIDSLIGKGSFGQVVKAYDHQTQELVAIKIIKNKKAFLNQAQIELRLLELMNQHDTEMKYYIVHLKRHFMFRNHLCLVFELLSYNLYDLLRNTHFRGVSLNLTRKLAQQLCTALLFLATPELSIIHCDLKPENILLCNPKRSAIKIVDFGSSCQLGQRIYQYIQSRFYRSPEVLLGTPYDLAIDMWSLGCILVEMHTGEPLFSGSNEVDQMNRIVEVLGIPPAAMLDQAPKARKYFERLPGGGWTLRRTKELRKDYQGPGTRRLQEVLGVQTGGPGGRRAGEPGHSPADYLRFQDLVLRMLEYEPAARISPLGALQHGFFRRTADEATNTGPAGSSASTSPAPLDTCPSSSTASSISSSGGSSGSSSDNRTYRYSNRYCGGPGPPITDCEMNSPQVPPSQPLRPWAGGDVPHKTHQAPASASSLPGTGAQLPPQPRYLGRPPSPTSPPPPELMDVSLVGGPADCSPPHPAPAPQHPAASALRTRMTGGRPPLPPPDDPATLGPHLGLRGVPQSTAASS
# UniProt P29317, whole entry: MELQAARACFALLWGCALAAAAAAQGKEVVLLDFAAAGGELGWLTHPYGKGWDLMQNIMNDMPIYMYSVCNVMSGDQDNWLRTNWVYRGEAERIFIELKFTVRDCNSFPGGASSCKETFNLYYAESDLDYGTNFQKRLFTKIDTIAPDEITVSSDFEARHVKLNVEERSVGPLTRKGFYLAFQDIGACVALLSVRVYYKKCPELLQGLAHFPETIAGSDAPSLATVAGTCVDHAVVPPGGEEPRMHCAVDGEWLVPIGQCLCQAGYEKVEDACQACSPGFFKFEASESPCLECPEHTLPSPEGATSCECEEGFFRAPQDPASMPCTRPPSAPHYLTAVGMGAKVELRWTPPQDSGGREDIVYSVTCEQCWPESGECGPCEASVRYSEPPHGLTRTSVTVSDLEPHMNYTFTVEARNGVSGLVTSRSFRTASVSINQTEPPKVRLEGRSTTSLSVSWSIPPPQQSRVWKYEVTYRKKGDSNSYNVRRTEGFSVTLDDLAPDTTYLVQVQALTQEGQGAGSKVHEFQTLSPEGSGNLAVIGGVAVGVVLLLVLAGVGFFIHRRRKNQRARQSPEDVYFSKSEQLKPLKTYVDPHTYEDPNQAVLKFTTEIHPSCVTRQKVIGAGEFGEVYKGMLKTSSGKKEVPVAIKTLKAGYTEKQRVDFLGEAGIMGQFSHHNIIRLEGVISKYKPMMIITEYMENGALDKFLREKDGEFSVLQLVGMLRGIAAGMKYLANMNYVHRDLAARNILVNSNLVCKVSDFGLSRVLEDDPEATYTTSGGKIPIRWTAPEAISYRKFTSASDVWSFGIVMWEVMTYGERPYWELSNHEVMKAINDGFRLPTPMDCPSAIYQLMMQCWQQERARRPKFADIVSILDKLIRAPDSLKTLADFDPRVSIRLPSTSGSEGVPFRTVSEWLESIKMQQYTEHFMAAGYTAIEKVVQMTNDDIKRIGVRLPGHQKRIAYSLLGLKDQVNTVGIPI
# UniProt P21860, whole entry: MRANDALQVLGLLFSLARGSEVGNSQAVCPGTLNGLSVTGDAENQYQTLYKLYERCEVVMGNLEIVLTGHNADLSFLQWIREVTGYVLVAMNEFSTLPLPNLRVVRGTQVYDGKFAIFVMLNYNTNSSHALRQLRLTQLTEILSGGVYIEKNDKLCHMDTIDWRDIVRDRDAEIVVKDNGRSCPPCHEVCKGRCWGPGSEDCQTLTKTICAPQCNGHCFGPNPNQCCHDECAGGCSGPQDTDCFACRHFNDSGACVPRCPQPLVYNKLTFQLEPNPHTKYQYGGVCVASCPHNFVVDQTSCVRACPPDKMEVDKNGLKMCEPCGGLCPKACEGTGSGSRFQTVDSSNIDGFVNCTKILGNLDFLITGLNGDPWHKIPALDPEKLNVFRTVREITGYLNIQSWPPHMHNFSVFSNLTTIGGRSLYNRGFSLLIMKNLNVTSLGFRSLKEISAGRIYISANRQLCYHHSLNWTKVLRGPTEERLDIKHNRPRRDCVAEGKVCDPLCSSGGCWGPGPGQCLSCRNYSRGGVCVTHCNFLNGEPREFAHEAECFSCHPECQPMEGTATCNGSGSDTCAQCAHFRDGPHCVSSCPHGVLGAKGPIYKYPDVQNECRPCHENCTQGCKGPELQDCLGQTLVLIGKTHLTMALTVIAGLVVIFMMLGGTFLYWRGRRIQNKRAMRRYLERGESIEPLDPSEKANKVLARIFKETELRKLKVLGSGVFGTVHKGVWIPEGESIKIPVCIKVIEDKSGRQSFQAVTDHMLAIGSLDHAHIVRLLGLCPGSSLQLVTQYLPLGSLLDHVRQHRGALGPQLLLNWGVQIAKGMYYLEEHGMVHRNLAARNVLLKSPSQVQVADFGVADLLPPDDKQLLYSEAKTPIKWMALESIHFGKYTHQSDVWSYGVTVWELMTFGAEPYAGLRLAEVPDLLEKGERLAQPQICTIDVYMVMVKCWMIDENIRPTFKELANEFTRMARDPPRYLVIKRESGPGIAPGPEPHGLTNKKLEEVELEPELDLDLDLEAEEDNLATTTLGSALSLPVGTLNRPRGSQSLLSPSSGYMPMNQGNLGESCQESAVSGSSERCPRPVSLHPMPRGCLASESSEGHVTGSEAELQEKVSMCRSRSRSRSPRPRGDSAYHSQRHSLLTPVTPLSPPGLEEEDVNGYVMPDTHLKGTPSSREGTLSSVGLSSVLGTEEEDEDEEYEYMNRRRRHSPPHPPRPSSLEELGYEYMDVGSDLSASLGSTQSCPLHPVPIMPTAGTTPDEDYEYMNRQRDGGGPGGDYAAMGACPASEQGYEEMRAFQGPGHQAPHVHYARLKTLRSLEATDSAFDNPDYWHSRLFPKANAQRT
# UniProt P21802, whole entry, looked up: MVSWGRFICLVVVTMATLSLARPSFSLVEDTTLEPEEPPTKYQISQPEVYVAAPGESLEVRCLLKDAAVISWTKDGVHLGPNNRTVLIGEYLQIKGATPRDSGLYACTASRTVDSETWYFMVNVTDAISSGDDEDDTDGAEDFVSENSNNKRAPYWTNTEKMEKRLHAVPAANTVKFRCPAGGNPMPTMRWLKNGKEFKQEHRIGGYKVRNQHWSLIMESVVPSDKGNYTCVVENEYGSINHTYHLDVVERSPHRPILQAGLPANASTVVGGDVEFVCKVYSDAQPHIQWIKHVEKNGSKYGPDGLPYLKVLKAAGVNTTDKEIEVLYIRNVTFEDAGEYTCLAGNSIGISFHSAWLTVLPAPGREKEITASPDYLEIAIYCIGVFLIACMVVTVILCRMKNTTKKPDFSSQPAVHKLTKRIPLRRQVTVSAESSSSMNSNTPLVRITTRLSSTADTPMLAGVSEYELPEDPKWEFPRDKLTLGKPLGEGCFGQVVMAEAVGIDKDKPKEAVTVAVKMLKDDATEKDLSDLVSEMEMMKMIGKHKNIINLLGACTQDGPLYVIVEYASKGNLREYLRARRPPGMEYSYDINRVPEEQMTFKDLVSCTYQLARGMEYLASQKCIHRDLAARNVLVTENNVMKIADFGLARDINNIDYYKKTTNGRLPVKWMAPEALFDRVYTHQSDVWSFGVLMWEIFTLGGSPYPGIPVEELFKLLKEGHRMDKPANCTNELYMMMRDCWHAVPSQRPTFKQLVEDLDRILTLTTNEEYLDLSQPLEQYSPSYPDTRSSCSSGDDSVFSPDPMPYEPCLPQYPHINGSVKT
# UniProt P22607, whole entry, looked up: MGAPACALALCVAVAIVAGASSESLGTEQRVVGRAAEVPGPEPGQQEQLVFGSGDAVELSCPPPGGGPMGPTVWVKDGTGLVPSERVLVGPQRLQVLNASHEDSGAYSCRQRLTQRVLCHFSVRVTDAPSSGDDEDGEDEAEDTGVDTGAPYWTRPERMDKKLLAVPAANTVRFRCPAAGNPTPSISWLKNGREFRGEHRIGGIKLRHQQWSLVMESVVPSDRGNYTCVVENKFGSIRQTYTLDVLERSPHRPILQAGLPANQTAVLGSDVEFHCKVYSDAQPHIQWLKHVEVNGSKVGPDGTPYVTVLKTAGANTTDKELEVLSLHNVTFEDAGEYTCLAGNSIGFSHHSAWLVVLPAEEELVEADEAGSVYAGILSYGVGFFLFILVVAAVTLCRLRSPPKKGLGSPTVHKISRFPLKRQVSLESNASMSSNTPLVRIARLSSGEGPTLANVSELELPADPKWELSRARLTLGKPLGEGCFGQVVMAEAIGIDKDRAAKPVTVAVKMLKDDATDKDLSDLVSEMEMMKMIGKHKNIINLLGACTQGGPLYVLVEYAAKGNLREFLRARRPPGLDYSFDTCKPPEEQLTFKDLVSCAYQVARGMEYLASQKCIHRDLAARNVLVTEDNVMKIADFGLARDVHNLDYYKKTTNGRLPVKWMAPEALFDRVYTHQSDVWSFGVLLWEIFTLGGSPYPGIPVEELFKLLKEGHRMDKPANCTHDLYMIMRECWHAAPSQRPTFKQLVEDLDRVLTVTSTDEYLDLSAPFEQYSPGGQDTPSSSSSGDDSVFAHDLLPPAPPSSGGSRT
# Structures can show the parent of a compound that is named as a salt. This is one part of the list. Hit calls seldom repeat between salt and free forms of one compound.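 Kinases, fused to nanoluciferase, were expressed in K562 cells; luminescence was measured every 4 h from 2 to 18 h as percent of control (DMSO = 100%, positive control = 0%). A time point is decreased if signal falls significantly (2 sigma). Hits were called by the authors by a rule that is not shown; the count of time points alone does not decide it.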
# Key:
# Assay in all cases: number of time points (of 5) at which kinase-Nluc abundance scored as decreased, DMSO-normalised (count); higher = more persistent destabilization
# Settings in all cases: K562; 2-18 h
# CSNK1A1 = CSNK1A1 (UniProt P48729)
# CSNK1D = CSNK1D (UniProt P48730)
# DDR1 = DDR1 (UniProt Q08345)
# DYRK1B = DYRK1B (UniProt Q9Y463)
# DYRK2 = DYRK2 (UniProt Q92630)
# EGFR = EGFR (UniProt P00533)
# EGFR_G719S = EGFR_G719S (UniProt P00533)
# EGFR_G719S_T790M = EGFR_G719S_T790M (UniProt P00533)
# EGFR_L718V = EGFR_L718V (UniProt P00533)
# EGFR_L858R = EGFR_L858R (UniProt P00533)
# EGFR_L861Q = EGFR_L861Q (UniProt P00533)
# EGFR_T790M = EGFR_T790M (UniProt P00533)
# EPHA2 = EPHA2 (UniProt P29317)
# ERBB3 = ERBB3 (UniProt P21860)
# [1] = biological target: ERBB4_R711C (clone: ERBB4_mut) (UniProt Q15303)
# ERN1 = ERN1 (UniProt O75460)
# FGFR1 = FGFR1 (UniProt P11362)
# FGFR2 = FGFR2 (UniProt P21802)
# FGFR3 = FGFR3 (UniProt P22607)
# FGR = FGR (UniProt P09769)
Compound,number of time points (CSNK1A1),number of time points (CSNK1D),number of time points (DDR1),number of time points (DYRK1B),number of time points (DYRK2),number of time points (EGFR),number of time points (EGFR_G719S),number of time points (EGFR_G719S_T790M),number of time points (EGFR_L718V),number of time points (EGFR_L858R),number of time points (EGFR_L861Q),number of time points (EGFR_T790M),number of time points (EPHA2),number of time points (ERBB3),number of time points [1],number of time points (ERN1),number of time points (FGFR1),number of time points (FGFR2),number of time points (FGFR3),number of time points (FGR)
CC(C)S(=O)(=O)c1ccc2nccc(Nc3ccc4scnc4c3)c2c1 (10 µM),0,0,1,0,2,0,0,0,0,0,0,0,0,2,0,0,0,2,0,0
NC(=O)c1cnc2[nH]ccc2c1N[C@@H]1[C@@H]2CC3C[C@H]1C[C@@](O)(C3)C2 [Peficitinib] (10 µM),0,0,1,0,4,0,3,2,0,0,4,0,0,3,3,2,0,3,0,0
CC/C(=N\NC(=O)c1ccnc(NCCCN2CCOCC2)c1)c1ccc(Cl)cc1O (2.5 µM),0,0,0,0,0,0,0,0,0,0,0,0,0,0,0,0,0,0,0,0
COc1cc2ncnc(Nc3ccccc3)c2cc1OC (10 µM),0,0,0,0,0,0,0,0,0,0,0,0,0,0,0,0,0,0,0,0
CNc1nc(Nc2cn(C(C)(C)C#N)nc2C)ncc1C(F)(F)F (10 µM),0,0,0,0,0,0,0,0,0,0,0,0,0,0,0,0,0,0,0,0
C=CC(=O)Nc1cccc(-c2cccc3cnc(Nc4ccc(N5CCN(CCO)CC5)c(F)c4F)nc23)c1 [Olafertinib] (2.5 µM),0,0,0,0,2,0,0,0,0,0,0,0,0,0,0,0,0,0,0,0
CC(C)=CC(=O)O[C@H]1Cc2cc3ccc(=O)oc3cc2OC1(C)C [Decursin] (10 µM),0,0,0,0,0,0,0,0,0,0,0,0,0,0,0,0,0,0,0,0
CN(C)c1nc2c(Br)c(Br)c(Br)c(Br)c2[nH]1 (10 µM),0,0,0,0,0,0,0,0,0,0,0,0,0,0,0,0,0,0,0,0
COc1nn(C)cc1Nc1nccc(-c2c[nH]c3c(NC(=O)[C@@H](C)N4CCN(C)CC4)cccc23)n1 (10 µM),0,0,0,0,0,0,0,0,0,0,0,0,0,0,0,0,0,0,0,0
CNC(=O)c1cc2c(Oc3ccc(NC(=S)NC(=O)Cc4ccccc4)cc3F)ccnc2cc1OC [TAS-115 mesylate] (10 µM),0,0,0,2,4,2,3,0,0,1,2,0,0,3,4,0,0,2,0,0
Cn1cc(-c2c[nH]c3ncnc(N4CCOCC4)c23)cc1C#N (10 µM),0,0,0,0,0,0,0,0,0,0,0,0,0,0,0,0,0,0,0,0
COc1cc2ncnc(-n3nc(-c4ccccn4)nc3N)c2cc1OC (10 µM),0,0,0,0,0,0,0,0,0,0,0,0,0,0,0,0,0,0,0,0
N#Cc1ccnc(Nc2cc(C3CCN(C4COC4)CC3)cc(N3CCC(F)(F)C3)n2)c1 (2.5 µM),0,0,0,0,0,0,0,0,0,0,0,0,0,0,0,0,0,0,0,0
Oc1ccc(/C=C/c2cc(O)cc(F)c2)cc1 [Resveratrol analog 1] (10 µM),0,0,0,0,0,0,0,0,0,0,0,0,0,0,0,0,0,0,0,0
N#CC(c1ccnc(OCc2ccc(CN3CCOCC3)cc2)n1)c1nc2ccccc2s1 (stereo not given) [Bentamapimod] (2.5 µM),0,0,0,0,0,0,0,0,0,0,0,0,0,0,0,0,0,0,0,0
CCCNC(=O)Nc1ccc(Oc2ncnc3cc(OC)c(OC)cc23)cc1Cl (2.5 µM),0,0,0,0,0,0,0,0,0,0,0,0,0,0,0,0,0,0,0,0
Cc1ccc(C(=O)Nc2sc(Nc3ccccc3)nc2C(N)=O)cc1 (10 µM),0,0,0,0,0,0,0,0,0,0,0,0,0,0,0,0,0,0,0,0
Cn1cc2cc(C(F)(F)c3nnc4ccc(-c5cnn(C6CC6)c5)nn34)c(F)cc2n1 [Bozitinib] (10 µM),0,0,4,0,0,0,0,2,0,0,0,0,0,2,4,0,0,0,0,0
O=[N+]([O-])c1ccc(Nc2nc(N3CCOCC3)nc(N3CCOCC3)n2)cc1 (10 µM),0,0,0,0,0,0,0,0,0,0,0,0,0,0,0,0,0,0,0,0
O=C1/C(=C\c2ccc(Cl)cc2)C=C(c2ccccc2)N1c1ccc(O)cc1 (2.5 µM),0,0,0,0,0,0,0,0,0,0,0,0,0,0,0,0,0,0,0,0
COc1ccc(-c2coc3cc(O)ccc3c2=O)cc1 [Formononetin] (10 µM),0,0,0,0,0,0,0,0,0,0,0,0,0,0,0,0,0,0,0,0
O=C1NC(=O)/C(=C/c2ccc3nccc(-c4ccncc4)c3c2)S1 (10 µM),1,0,0,0,0,0,2,0,0,0,0,0,0,0,0,0,1,3,0,0
COc1ccc(-c2c(C)nn3c(NCCN4CCOCC4)cc(C)nc23)cc1OC (10 µM),0,0,0,0,0,0,0,0,0,0,0,0,0,0,0,0,0,0,0,0

# Given tab-delimited: entries from further up.
Compound	number of time points (CSNK1A1)	number of time points (CSNK1D)	number of time points (DDR1)	number of time points (DYRK1B)	number of time points (DYRK2)	number of time points (EGFR)	number of time points (EGFR_G719S)	number of time points (EGFR_G719S_T790M)	number of time points (EGFR_L718V)	number of time points (EGFR_L858R)	number of time points (EGFR_L861Q)	number of time points (EGFR_T790M)	number of time points (EPHA2)	number of time points (ERBB3)	number of time points [1]	number of time points (ERN1)	number of time points (FGFR1)	number of time points (FGFR2)	number of time points (FGFR3)	number of time points (FGR)
CN(C)c1nc2c(Br)c(Br)c(Br)c(Br)c2[nH]1 (10 µM)	0	0	0	0	0	0	0	0	0	0	0	0	0	0	0	0	0	0	0	0
COc1ccc(-c2c(C)nn3c(NCCN4CCOCC4)cc(C)nc23)cc1OC (10 µM)	0	0	0	0	0	0	0	0	0	0	0	0	0	0	0	0	0	0	0	0
